Seven substances from paper PMC7425898 can be followed below.

By UniProt entry, the sequences of proteins in these tests, tags left out. Where a name states a change or a piece, a line headed by the entry shows the natural chain unless it says otherwise.
UniProt Q9H0U4: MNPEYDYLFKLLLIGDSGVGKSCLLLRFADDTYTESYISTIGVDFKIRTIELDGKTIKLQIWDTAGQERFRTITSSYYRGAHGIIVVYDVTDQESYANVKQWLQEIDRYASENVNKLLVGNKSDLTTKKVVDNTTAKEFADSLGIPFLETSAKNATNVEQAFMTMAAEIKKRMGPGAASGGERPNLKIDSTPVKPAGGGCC
UniProt P62820: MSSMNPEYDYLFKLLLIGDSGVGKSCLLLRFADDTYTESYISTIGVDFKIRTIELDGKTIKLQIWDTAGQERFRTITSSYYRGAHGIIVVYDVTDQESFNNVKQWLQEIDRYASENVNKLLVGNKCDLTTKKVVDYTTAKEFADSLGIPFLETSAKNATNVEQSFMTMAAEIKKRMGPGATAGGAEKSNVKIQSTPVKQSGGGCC
UniProt Q9H4A6: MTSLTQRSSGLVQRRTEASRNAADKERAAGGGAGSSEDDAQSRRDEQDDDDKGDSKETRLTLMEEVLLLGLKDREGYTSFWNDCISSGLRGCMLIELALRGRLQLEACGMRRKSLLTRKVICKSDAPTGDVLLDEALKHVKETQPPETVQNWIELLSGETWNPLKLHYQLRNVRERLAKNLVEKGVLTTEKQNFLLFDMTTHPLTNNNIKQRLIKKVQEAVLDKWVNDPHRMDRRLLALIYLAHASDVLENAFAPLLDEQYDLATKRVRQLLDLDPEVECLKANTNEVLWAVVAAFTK

No constants are given. Whether binding was seen depends on the method and setting. For some assays here: Binding seen in cells or lysates may run through a third protein. Some entries that bind do so weakly or less than the wild type.

The target of assay [1] is GFP-RAB1B (wild type) (human) (UniProt Q9H0U4). As to the kind of experiment: co-IP; GFP-Trap agarose beads with extracts (0.2 mg) of H4 cells expressing GFP or GFP-RAB1A/B variants, supplemented with extract (0.3 mg) of non-transfected cells; 25 mM Tris-HCl, 50 mM NaCl, 0.1% NP-40, pH 7.5; 1.5-4 h, 4°C; immunoblot for GOLPH3, densitometry. In general terms: Immunoblotting shows a protein as a band on a membrane.

Assay [2] addresses GFP-RAB1A (wild type) (human) (UniProt P62820). Described as above.
Another assay has as its target GFP-RAB1B-S22N (human) (UniProt Q9H0U4). The description is as above.
A further assay concerns the target GFP-RAB1A-S25N (human) (UniProt P62820). The assay is described as above.
The next assay has as its target GST-RAB1A-S25N (human) (UniProt P62820). As to the kind of experiment: pull-down; GST or GST-tagged RAB1A/B variants on glutathione-Sepharose 4B, soluble protein extract of H4 cells (0.5 mg) with protease and phosphatase inhibitors; binding buffer-1; 3 h, 4°C; immunoblot for GOLPH3, densitometry; only the target purified.
Assay [3] has as its target GST-RAB1A (wild type) (human) (UniProt P62820). The description is as above.
Another assay deals with GST-RAB1B-S22N (human) (UniProt Q9H0U4). The description is as above.
In assay [4] the target is GST-RAB1B (wild type) (human) (UniProt Q9H0U4). The assay is described as above.
The target of assay [5] is Gal4bd fused to human GOLPH3 (human) (UniProt Q9H4A6). As to the kind of experiment: two-hybrid; Gal4bd-GOLPH3 with Gal4ad-RAB1A/B variants co-transformed in yeast; growth on -His plates at 30°C.

As for “Endogenous GOLPH3 (from UniProt Q9H4A6 1-298)”, the binding result (in assay [1]; in assay [2]; in the assay with GFP-RAB1B-S22N (human); in the assay with GFP-RAB1A-S25N (human); with GST-RAB1A-S25N (human); in [3]) was “binds” each time. Further, the binding entry (with GST-RAB1B-S22N (human); in [4]) was “binds” throughout.

For the substance “Gal4ad fused to RAB1A wild type (from UniProt P62820 1-205)”, the binding result in assay [5] is given as “binds”.

With “Gal4ad fused to RAB1A-Q70L (from UniProt P62820 1-205)”, the binding result in assay [5] is reported as “binds”.

For “Gal4ad fused to RAB1A-S25N (from UniProt P62820 1-205)”, in [5], the binding entry was “binds”.

Turning to “Gal4ad fused to RAB1B wild type (from UniProt Q9H0U4 1-201)”, the binding result in assay [5] was “binds”.

Consider “Gal4ad fused to RAB1B-Q67L (from UniProt Q9H0U4 1-201)”, for which the binding entry in [5] is on record as “binds”.

For the substance “Gal4ad fused to RAB1B-S22N (from UniProt Q9H0U4 1-201)”, the binding entry in assay [5] is recorded as “binds”.
